This is an account of results in US20140045776A1, “METHOD FOR INCREASING THE SHELF LIFE OF FOOD PRODUCTS” (GALACTIC S.A., priority 2011, published 2014).

Data set [1] in a line: Taste tests on minced meat by a panel of ten experienced testers. More on the design: key: 0: no change in taste compared with a minced meat not containing potassium acetate; 1: change in taste compared with a minced meat not containing potassium acetate.
Experiment in data set [2]: as above
The note with it: for maximum concentration before obtaining an impact on the taste: main-salt concentration 60%.

Experiment in data set [3]: as above
More on the design: key: 0: no change in taste compared with a minced meat not containing potassium lactate; 1: change in taste compared with a minced meat not containing potassium lactate.

For the molecule `CC(=O)[O-].[K+]` [potassium acetate], the Taste in data set [1] (potassium acetate (main-salt concentration 60%) at 0.05%) came out at 0; in data set [1] (potassium acetate (main-salt concentration 60%) at 0.1%), 1; in data set [1] (potassium acetate (main-salt concentration 60%) at 0.15%), 1; in data set [1] (potassium acetate (main-salt concentration 60%) at 0.2%), 1; in data set [1] (potassium acetate (main-salt concentration 60%) at 0.25%), 1. For the same molecule, the “concentration as from which an acidic taste is observed in the sample” value in data set [2] is reported as ≥ 0.1%. For the same molecule, the “maximum concentration before obtaining an impact on the taste” value in data set [2] is reported as 0.05%.

`CC(O)C(=O)[O-].[K+]` (centres unmarked) [potassium lactate]: the Taste in data set [3] (potassium lactate (main-salt concentration 60%) at 1%) is on record as 0; in data set [3] (potassium lactate (main-salt concentration 60%) at 2%), 0; in data set [3] (potassium lactate (main-salt concentration 60%) at 3%) it was 1. Moreover, the “maximum concentration before obtaining an impact on the taste” value in data set [2] came out at 2%.
